PubChem BioAssay AID1259254 | NCATS | 2017

Test: 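Gene knock-downs that lead to re-replication, shown by excess G2 DNA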 (primary screen)
Cells: human HCT116 colorectal cancer cells
Reagents: single siRNA against human genes
Time to read-out: 3 days
Measurement: 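Nuclei stained with Hoechst and imaged; cell-cycle phase assigned by DNA content; G2 share scaled per plate, non-targeting siRNA 0%, GMNN siRNA 100%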
Reading the numbers: G2 robust z-score: higher = more G2 cells, more excess DNA replication
Rule for the call: 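An siRNA counts as active if its G2 robust z-score lies at least 5 MADs above the screen median; here such calls match roughly 38% of GMNN control or more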
Here is a random part of about 59,000 reagents tested. Over the whole deposit, about 1,550 (2.6%) were called active. 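G2 share is only a proxy for re-replication; each gene was hit by three separate siRNAs, and active genes were retested.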 A number with no mark means an inactive call. Further read-outs or replicates are left out here. The record does not give: the amount of reagent.

G2 robust z-score, by gene and reagent
WNT16: SID160740730 -1.55; SID160740731 1.95; SID160740732 0.925
APOC1: SID160718773 -0.941; SID160718784 1.88; SID160723654 6.09 (active)
DZIP1L: SID160760722 4.54; SID160760724 1.25; SID160760725 -0.385
POLN: SID160765200 6.57 (active); SID160765201 0.362; SID160765202 1.71
EXT2: SID160762593 -0.466; SID160762604 -0.383; SID160762614 -0.0803
GALNT6: SID160730228 0.728; SID160730229 -0.562; SID160730230 0.907
GAS2L2: SID160761998 0.478; SID160761999 -0.568; SID160762000 1.16
LINC00917: SID160774410 -0.889; SID160774411 2.1; SID160774412 1.36
HUS1B: SID160757414 0.121; SID160757415 -0.753; SID160757416 0.163
B4GALNT4: SID160764086 3.8; SID160764087 -0.368; SID160764088 0.327
PADI1: SID160739353 -1.15; SID160739354 -0.379; SID160739355 2.21

Entries listed so far called active:
G2 robust z-score, by gene and reagent
APOC1: SID160723654 6.09 (active)
POLN: SID160765200 6.57 (active)

The listing continues:
G2 robust z-score, by gene and reagent
ICE1: SID160736145 4.64; SID160736146 3.68; SID160736147 0.0533
SPATA16: SID160751511 -1.29; SID160751512 0.38; SID160751513 -0.895
OR2T34: SID160756575 -0.391; SID160756576 0.12; SID160756577 0.262
NR2C2AP: SID160732421 -0.342; SID160756478 0.0108; SID160756479 -0.00915
OTULIN: SID160753619 -0.0544; SID160753620 0.858; SID160753621 0.512
RAC1: SID160715574 8.56 (active); SID160715575 2.25; SID160715576 1.63
GPR19: SID160773304 6.12 (active); SID160773314 -0.0462; SID160773322 2.23
SPP1: SID160717278 0.265; SID160717279 5.42 (active); SID160717280 -0.0656
FAM238A: SID160725828 1.85; SID160725829 0.106; SID160769594 -1.13
IL13RA2: SID160775785 -0.159; SID160775786 -0.0265; SID160775787 -0.224
TPD52L2: SID160718272 1.52; SID160718273 -0.0238; SID160718274 -0.727
RPL36AP46: SID160734583 1.64; SID160772976 2.47; SID160772977 -0.086
ZNF585B: SID160754239 0.96; SID160754240 0.932; SID160754241 -0.748
H4C2: SID160719914 0.213; SID160719915 -0.339; SID160735049 -0.35
LOC729609: SID160734575 -0.633; SID160772956 2.72; SID160772957 1.79
TMEM151A: SID160762453 1.25; SID160762454 0.243; SID160762455 -0.643
JMJD8: SID160764153 -0.413; SID160764154 0.922; SID160764155 -1.16
KIF26B: SID160742898 -0.0801; SID160742899 -0.656; SID160742900 -1.06
